Values quoted from earlier work in US7179597B2, “Genetic diagnosis for QT prolongation related adverse drug reactions” (Georgetown University, priority 2000, dated 2007).
Like-named read-outs stand apart in the source and are kept apart here.

Key:
CYP3A = conditions: Table 3; cited from earlier work
[1] = cited from earlier work

Compound: CCCCc1oc2ccccc2c1C(=O)c1cc(I)c(OCCN(CC)CC)c(I)c1 [Amiodarone]
- Interactions: cytochrome P-450 isoform 3A, substrate or inhibitor (CYP3A): Inhibitor
- QT ([1]; Table 2, drug labeling): Yes
- QT ([1]; Table 3): Yes
